# Screening data

Data taken from PubChem BioAssay AID1053133, deposited by Broad Institute (2014).

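Vaccinia-infected cells with a two-color viral stage reporter; Venus fluorescence read on a plate reader; the cell line is not named here; timing not stated here. The test concentration is not given here. Percent change in Venus reporter signal; lower (more negative) values mean stronger inhibition of that viral stage.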

Values are in %. How 0% and 100% were set is not given here. Common to all entries: measured here: Venus reporter, other viral stage. This is a side read-out of the assay, for part of the compounds, not drawn at random.

{"compound": "Cc1ccc(-c2ccc([C@H]3[C@@H](CO)N4CCCCN(C(=O)c5ccc(F)cc5)C[C@@H]34)cc2)cc1", "activity change (Venus) (%)": "-52.46"}
{"compound": "COc1ccc(S(=O)(=O)N(C)C[C@H]2Oc3c(NC(=O)Nc4ccc(F)cc4)cccc3C(=O)N([C@@H](C)CO)C[C@H]2C)cc1", "activity change (Venus) (%)": "-39.75"}
{"compound": "N#C[C@H]1[C@H](c2ccc(-c3cccc(F)c3)cc2)[C@H](CO)N1S(=O)(=O)c1cccc(F)c1", "activity change (Venus) (%)": "-26.78"}
{"compound": "C[C@@H]1CN([C@H](C)CO)C(=O)c2c(c3ccccc3n2C)-c2ccccc2CO[C@H]1CN(C)Cc1ccc2c(c1)OCO2", "activity change (Venus) (%)": "-42.53"}
{"compound": "Cc1noc(C)c1S(=O)(=O)Nc1ccc2c(c1)C(=O)N([C@@H](C)CO)C[C@H](C)[C@H](CN(C)Cc1ccc3c(c1)OCO3)OCCCC[C@@H](C)O2", "activity change (Venus) (%)": "-42.12"}
{"compound": "C[C@@H]1CCCCO[C@H](CN(C)Cc2ccc3c(c2)OCO3)[C@@H](C)CN([C@@H](C)CO)C(=O)c2cc(NC(=O)CCC(F)(F)F)ccc2O1", "activity change (Venus) (%)": "-36.15"}
{"compound": "COc1cccc(CN2CCC3(CC2)CN(C(=O)C2CC2)[C@@H](CO)c2[nH]c4cc(OC)ccc4c23)c1", "activity change (Venus) (%)": "-40.53"}
{"compound": "COc1ccc([Si](C)(C)[C@@H]2[C@@H](CCO)O[C@]3(C(=O)N(Cc4cccc(NC(C)=O)c4)c4ccccc43)[C@H]2C)cc1", "activity change (Venus) (%)": "-80.95"}
{"compound": "C[C@H]1CN([C@@H](C)CO)C(=O)c2cc(NC(=O)Nc3ccc(F)cc3)ccc2O[C@H]1CN(C)Cc1ccc(-c2ccccc2)cc1", "activity change (Venus) (%)": "-46.64"}
{"compound": "CN(C)CC(=O)N[C@H]1C[C@@H]2O[C@H](CO)CC[C@@H]2O[C@@H]1CCc1ccc(-c2ccc(F)cc2)cc1", "activity change (Venus) (%)": "-48.33"}
{"compound": "COc1ccc(-c2ccc(C3[C@@H]4CN(C(=O)Nc5ccccc5F)C[C@H]3N4)cc2)cc1", "stereo": "some centres not stated", "activity change (Venus) (%)": "-84.35"}
{"compound": "O=C(C1CCCC1)N1CCCCN2[C@H](C1)[C@H](c1ccc(-c3cccc(F)c3)cc1)[C@@H]2CO", "activity change (Venus) (%)": "-51.47"}
{"compound": "O=C(C1CCCC1)N1CC(=O)N2[C@H](C1)[C@@H](c1ccc(-c3ccccc3F)cc1)[C@@H]2CO", "activity change (Venus) (%)": "-18.94"}
{"compound": "O=C(Nc1ccc(F)cc1)N1CC(=O)N2[C@H](CO)[C@@H](c3ccc(C#Cc4ccc(F)cc4)cc3)[C@@H]2C1", "activity change (Venus) (%)": "-75.01"}
{"compound": "O=C(Nc1cc(F)ccc1F)N1CCCCN2[C@@H](CO)[C@@H](c3ccc(C4=CCCCC4)cc3)[C@@H]2C1", "activity change (Venus) (%)": "-66.35"}
{"compound": "O=C(Nc1ccccc1)N1CCCCN2[C@H](C1)[C@@H](c1ccc(C#Cc3cccnc3)cc1)[C@@H]2CO", "activity change (Venus) (%)": "-51.67"}
{"compound": "COc1cccc(-c2ccc3c(c2)[C@H]2[C@H](CCN2C(=O)Nc2ccccc2OC)[C@H](CO)N3C)c1", "activity change (Venus) (%)": "-30.86"}
{"compound": "COc1ccc(S(=O)(=O)Nc2ccc3c(c2)CC(=O)N([C@H](C)CO)C[C@@H](C)[C@@H](CN(C)Cc2ccc(Cl)c(Cl)c2)O3)cc1", "activity change (Venus) (%)": "-46.52"}
{"compound": "O=C(Nc1ccc2c(c1)[C@H]1C[C@@H](CC(=O)N3CCc4ccccc4C3)O[C@@H](CO)[C@H]1O2)Nc1ccccc1F", "activity change (Venus) (%)": "-29.15"}
{"compound": "Cn1cnc(S(=O)(=O)N2CCCCN3[C@H](C2)[C@H](c2ccc(C#CC4CC4)cc2)[C@@H]3CO)c1", "activity change (Venus) (%)": "-37.44"}
{"compound": "C[C@@H]1CCCCO[C@H](CN(C)Cc2ccc(C(F)(F)F)cc2)[C@H](C)CN([C@@H](C)CO)C(=O)c2cc(NS(=O)(=O)c3ccc(Cl)cc3)ccc2O1", "activity change (Venus) (%)": "-38.94"}
{"compound": "C[C@H]1CN([C@@H](C)CO)C(=O)Cc2cc(NS(=O)(=O)c3cccs3)ccc2O[C@H]1CN(C)Cc1ccc(-c2ccccc2)cc1", "activity change (Venus) (%)": "-47.88"}
{"compound": "C[C@H]1CN([C@@H](C)CO)C(=O)c2cc(C#Cc3cccc(F)c3)cnc2O[C@@H]1CN(C)CC1CCCC1", "activity change (Venus) (%)": "-48.84"}
{"compound": "CC(C)NC(=O)Nc1ccc2c(c1)CC(=O)N([C@H](C)CO)C[C@H](C)[C@@H](CN(C)Cc1ccc(Cl)c(Cl)c1)O2", "activity change (Venus) (%)": "-30.23"}
{"compound": "C[C@H]1CN([C@@H](C)CO)S(=O)(=O)c2ccc(C#Cc3ccc(F)cc3)cc2O[C@H]1CN(C)C(=O)c1ccccn1", "activity change (Venus) (%)": "-49.74"}
{"compound": "C[C@H]1CN([C@@H](C)CO)C(=O)c2ccccc2-c2ccccc2CO[C@H]1CN(C)Cc1ccc(-c2ccccc2)cc1", "activity change (Venus) (%)": "-34.6"}

2 of the entries, repeated:

For N#C[C@H]1[C@H](c2ccc(-c3cccc(F)c3)cc2)[C@H](CO)N1S(=O)(=O)c1cccc(F)c1 the result was activity change (Venus) -26.78%.
For O=C(Nc1cc(F)ccc1F)N1CCCCN2[C@@H](CO)[C@@H](c3ccc(C4=CCCCC4)cc3)[C@@H]2C1 the result was activity change (Venus) -66.35%.